Series [1] in a line: general procedure: Boc solid-phase peptide synthesis; Boc-Leu PAM polystyrene resin; dicyclohexylcarbodiimide/N-hydroxybenzotriazole. The conditions noted are these: whole synthesis, by HPLC (UV absorption at 215 nm).
Series [2] is described as follows: general procedure: Boc solid-phase peptide synthesis; Boc-Gln PAM resin; dicyclohexylcarbodiimide/N-hydroxybenzotriazole. The conditions noted are these: whole synthesis.

Regarding “[D-Phe^45,Arg^47,ψ(COCH2)(CH2)3CO^47-(NHCH2CH=CHCH2CO), Pro^58, Leu^61]hirudin^45-61”, the crude yield result in series [1] is reported as “greater than 60%”.
In the case of “[D-Phe^45,Arg^47,ψ(COCH2)CH2CH2CO^47]hirudin^45-65”, the “final purity (method not given)” value in series [2] was 98% purity or higher.

Source of the values: EP0536177B1 (MAJESTY (HER) IN RIGHT OF CANADA as represented by THE …, priority 1990, dated 1991).
